## Primary screen of a compound library

Sequences of proteins named here, by UniProt entry; tags and fusion partners are left off.
UniProt E9BF75, entry or part of it: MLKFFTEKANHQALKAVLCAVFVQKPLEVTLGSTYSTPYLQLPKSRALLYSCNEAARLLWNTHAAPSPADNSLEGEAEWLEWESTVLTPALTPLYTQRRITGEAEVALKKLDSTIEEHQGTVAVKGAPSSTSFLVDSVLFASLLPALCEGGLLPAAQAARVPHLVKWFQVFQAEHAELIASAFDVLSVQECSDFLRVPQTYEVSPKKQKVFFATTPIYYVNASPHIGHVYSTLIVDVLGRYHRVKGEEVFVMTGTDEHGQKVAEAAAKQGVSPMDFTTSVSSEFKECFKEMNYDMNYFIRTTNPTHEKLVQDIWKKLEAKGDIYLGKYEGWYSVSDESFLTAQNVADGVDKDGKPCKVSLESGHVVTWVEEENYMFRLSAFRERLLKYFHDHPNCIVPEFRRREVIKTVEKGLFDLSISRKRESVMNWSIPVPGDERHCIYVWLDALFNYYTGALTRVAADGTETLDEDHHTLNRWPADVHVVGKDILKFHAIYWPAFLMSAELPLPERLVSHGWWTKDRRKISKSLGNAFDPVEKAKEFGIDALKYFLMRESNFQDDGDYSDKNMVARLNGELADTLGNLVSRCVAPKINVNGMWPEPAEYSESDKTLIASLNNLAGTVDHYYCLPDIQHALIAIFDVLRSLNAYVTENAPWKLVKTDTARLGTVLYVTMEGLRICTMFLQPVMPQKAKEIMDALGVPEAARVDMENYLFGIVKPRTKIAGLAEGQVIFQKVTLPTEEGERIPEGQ

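Methionyl-tRNA synthetase (putative), Leishmania donovani (UniProt E9BF75). Primary screen of methionyl-tRNA synthetase; the read-out is not stated. The test concentration is not given. Values are per cent inhibition. Of about 68,000 compounds tested this way, about 24 (0.035%) reached 50% or more in at least one test.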

All values are in %.
How 0% and 100% were set is not recorded. Most values in the screen are low, and negative values occur.
Compounds were drawn at random from those tested, without regard to their results.

structure,inhibition
O=C(c1cncc(Br)c1)N1CCCc2ccc(F)cc21,9.028
Cc1cc(C(F)F)nn1C(C)C(=O)NCc1ncc[nH]1 (stereo not shown),19.06
C[C@]1(O)CN(CCC(N)=O)CC[C@@H]1Oc1cccc(F)c1,12.94
O=C(CCSc1ccc2c(c1)OCCO2)NCC1CCS(=O)(=O)C1 (stereo not shown),10
CN(C)C(=O)Cc1ccc(NC(=O)NC2CCCCC2)cc1,8.333
COc1ccc2[nH]nc(CN3CCN(Cc4cccc(F)c4)CC3)c2c1,21.22
Cc1nccn1CCN(C)C(=O)C1CCN(C(=O)C2CCCC2)CC1,5.115
Cc1cnn(CC2CCCN2C(=O)CN(C)C2CC2)c1 (stereo not shown),16.06
Cc1cc(C)n(CCCC(=O)N2CC[C@H]3NCCC[C@]3(CO)C2)n1,14.58
Cc1ncncc1C(=O)N1CCCC(n2cccn2)C1 (stereo not shown),4.913
NC(=O)CN(Cc1ccc(Br)cc1)C(=O)c1ccncc1,13.18
CC(C)(C)CN1CCC(c2nnc(Cn3ccnc3)n2C2CC2)CC1,2.338
N#CCCN(Cc1ccco1)C(=O)c1ccc(OCC2CC2)cc1,-3.855
O=C(COc1ccc(Cl)cc1Cl)N1CCCSCC1CN1CCOCC1 (stereo not shown),13.67
Cc1nc(CC(=O)N2CCCC(n3ccnc3C(C)C)C2)cs1 (stereo not shown),19.43
CS(=O)(=O)N[C@@H]1CN(C(=O)c2cc3ccccc3s2)C[C@H]1O,12.03
COCc1noc(CCNc2ncnc3c2CCNCC3)n1,11
CCC(Cn1ccc2[nH]c(=O)c(C#N)cc2c1=O)OC (stereo not shown),10.13
CCC(CO)N(Cc1cccc(-n2cccn2)c1)Cc1ccccn1 (stereo not shown),5.974
CCS(=O)(=O)N1CCC(c2nnc(Cn3cccn3)n2C2CC2)CC1,13.27
O=C(c1ncoc1-c1ccco1)N1CCCN(c2nccs2)CC1,8.011
Cc1csc(C(Cc2ccsc2)NC(=O)CN(C)Cc2cccnc2)n1 (stereo not shown),16.04
Cc1ccc(NC(=O)CN2CCC(OCC3CCCO3)CC2)c(C)c1 (stereo not shown),4.57
CN(C)c1cncc(C2CCCN2S(=O)(=O)c2cn(C)cn2)n1 (stereo not shown),-5.161
Cc1c(Br)cccc1C(=O)NCC1CCNCC1,2.446
CCN(c1ccc(C(=O)NCCCN2CCCCC2)cc1)S(=O)(=O)CC,11.33
CC(Cn1cccn1)NCc1nc(-c2ccsc2)no1 (stereo not shown),9.143
NC1(C(=O)NCC2CCCN(Cc3cccc4nonc34)C2)CCC1 (stereo not shown),18.35
Cc1cc(NC(=O)CN2CCc3cncnc3C2)on1,13.25
Cn1cccc1C(O)CNC(=O)c1cccc(Cl)c1 (stereo not shown),12.68
Cc1n[nH]c(C)c1C1COCCN1C(=O)c1cc(Cl)c[nH]1 (stereo not shown),7.975
CC(C)N1CCCC2(CCN(C(=O)CCCn3cncn3)C2)C1=O (stereo not shown),2.222
CN(Cc1cccs1)C(=O)CN1C(=O)c2cc(Cl)c(Cl)cc2C1=O,13.87
Cn1cc(Cl)c(CN2CCn3nc(C(=O)Nc4ccccc4)cc3C2)n1,1.961
O=C(NCc1nccs1)N1CCOC(c2ccccc2Cl)C1 (stereo not shown),-1.397
Cc1ccc(C(=O)N2C[C@@H](C(=O)O)[C@H](c3ccncc3)C2)cc1F,11.59
O=C(c1cccc(N2CCCC2=O)c1)N1CCCC(n2cncn2)C1 (stereo not shown),5.882
CC1Oc2ccc(S(=O)(=O)NCCCn3ccnc3)cc2NC1=O (stereo not shown),-2.821
O=C(NCC(O)c1ccoc1)Nc1cccs1 (stereo not shown),17.07
Cn1cc(C(O)CNC(=O)c2sccc2OC(F)F)cn1 (stereo not shown),6.443
CC(c1nc(C2CC2)no1)N1CCN(Cc2cccnc2)CC1 (stereo not shown),8.877
Cn1cncc1-c1nnc([C@H]2CCN(CC3CCCCC3)C2)o1,12.03
O=C(CCCc1cccs1)N1CCC(N2CCNC2=O)CC1,3.315
O=C(CN1CCc2sccc2C1)Nc1ccnc2ccnn12,16.06
Cn1ccc(C(=O)NCc2cccc(CN3CCCC3)c2)cc1=O,10.1
CCNC(=O)CN1CCN(Cc2nc3c(F)cccc3n2CC)CC1,23.5
Cc1nn(C)c(C)c1CN(C)C(=O)C1COc2ccccc2C1 (stereo not shown),15.68
O=C(NCCOc1ncc(Cl)cc1Cl)c1cccnc1,9.03
O=C(Nc1ccccc1CCc1ccccn1)NC1CCOCC1,5.013
CC(C)N1[C@H](Cn2cccn2)C[C@@H]2CN(C3CCOCC3)CC[C@@H]21,16.29
Cc1cc(N2CCC(c3n[nH]c4nccnc34)C2)ncn1 (stereo not shown),5.788
Cc1nc(C2CCN(C(=O)c3cc(C4CC4)[nH]n3)CC2)no1,11.45
O=C1NCC[C@]12CN(Cc1ccco1)C[C@H]2c1ccccc1,8.219
CNC(=O)Cc1csc(NC(=O)C2CSCCC(=O)N2)n1 (stereo not shown),2.158
CC(C)(C)OC(=O)N1CCCc2ccc(NCc3ccon3)cc21,12.42
COc1ccc(OC)c(CN2CCc3nc4ccsc4c(=O)n3CC2)c1,14.89
Cc1cnc(C(=O)N2CCCC(Cn3cc(CC(C)C)nn3)C2)cn1 (stereo not shown),14.63
Cn1ccnc1CN1CCN(CC(=O)NCc2cccs2)CC1,9.444
Cc1ccc(OCCN(C)C2CCOC2=O)cc1 (stereo not shown),8.757
CNC(=O)c1cc2c(nc1N(C)C)CCN(c1ncc(F)cn1)CC2,10.56
COCCN1CCOCC12CCN(C(=O)c1cccnc1)CC2,4
Cc1cccc(NC(=O)Cc2cnc3n(C)c(=O)[nH]c(=O)n23)c1,0
Cc1nc(NC2(CN3CCCCC3)CCCCC2)c2cnn(C)c2n1,24.77
COc1ccc(CNc2c(C)cnc3c2c(=O)n(C)c(=O)n3C)cc1,9.483
Cc1c(C2SCC(=O)Nc3c2c(O)nn3C2CCCC2)cnn1C (stereo not shown),11.66
CCN1CCOC(CNc2nccc(OC)n2)C1 (stereo not shown),3.817

Once more, the final 5:

| structure | inhibition |
|---|---|
| `Cc1cccc(NC(=O)Cc2cnc3n(C)c(=O)[nH]c(=O)n23)c1` | 0 |
| `Cc1nc(NC2(CN3CCCCC3)CCCCC2)c2cnn(C)c2n1` | 24.77 |
| `COc1ccc(CNc2c(C)cnc3c2c(=O)n(C)c(=O)n3C)cc1` | 9.483 |
| `Cc1c(C2SCC(=O)Nc3c2c(O)nn3C2CCCC2)cnn1C` (stereo not shown) | 11.66 |
| `CCN1CCOC(CNc2nccc(OC)n2)C1` (stereo not shown) | 3.817 |

The values are deposited in ChEMBL (CHEMBL3988442, “University of Dundee, Small-Polar-MMV Screening Library” (2021)).